Experimental findings from patent US8076321B2, “Compositions for treatment of systemic mastocytosis” (priority 2005, dated 2011) are described below.

Assay [1] deals with non-transfected Ba/F3 cells. To be noted: not shown.
The test system of assay [2] is Ton.Kit.wt cells (Ba/F3 with inducible wt KIT). Description: cells. To be noted: Mus musculus, BaF3, 48 h, read-out: IC50, SCF-dependent growth of doxycycline-exposed Ton.Kit.wt cells.

Molecules are shown by their SMILES.

Usually IC50 stands for the midpoint of a concentration-inhibition curve. Regarding `CO[C@@H]1[C@H](N(C)C(=O)c2ccccc2)C[C@H]2O[C@]1(C)n1c3ccccc3c3c4c(c5c6ccccc6n2c5c31)C(=O)NC4` [PKC412, N-[(9S,10R,11R,13R)-2,3,10,11,12,13-hexahydro-10-methoxy-9-methyl-1-oxo-9,13-epoxy-1H,9H-diindolo[1,2,3-gh:3′,2′,1′-1m]pyrrolo[3,4-j][1,7]benzodiazonin-11-yl]-N-methylbenzamide], the “growth-inhibitory effect on control (non-transfected) Ba/F3 cells” value in assay [1] was “neither doxycycline (1 μg/ml), nor the TK inhibitors (imatinib, PKC412, AMN107), showed growth-inhibitory effects”. The IC50 in assay [2] lay in the range of 3 to 30 nM.
